Measurements reported in PubChem BioAssay AID1259308 (NCATS, 2017)
This is one part, drawn at random, of about 59,000 reagents tested. Of all reagents, about 1,510 (2.6%) got an active call. 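Calls use total luciferase alone and ignore viability, so some active siRNAs may act by altering cell number.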 The numbers tell different reagents against one gene apart. Not all columns of the deposit are shown.

Test: 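Genes whose loss raises luciferase production in HEK293 cells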 (primary screen)
Cells: human HEK293 embryonic kidney cells stably expressing firefly luciferase (HEK-CMV-Luc2-Hygro)
Reagent: single siRNA against human genes, 0.8 pmol siRNA per well
Time to read-out: 72 h
Measured: 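Reporter luminescence and viable-cell signal on separate replicate plates, given as percent of non-targeting control and median/MAD z-scores, plus per-cell luciferase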
Scale: total luciferase, z-score: higher = more reporter protein produced
Call rule: 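Active when the median/MAD z-score for overall luciferase is greater than 3; a gene was taken forward for validation with new siRNAs if at least two of its three siRNAs passed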
Calls: active = raised luciferase; inactive = no rise

target gene | reagent no. | total luciferase, z-score | activity call
KIF18B | 1 | 2.49 | inactive
KIF18B | 2 | -1.47 | inactive
KIF18B | 3 | -0.142 | inactive
POU5F1 | 1 | 3.98 | active
POU5F1 | 2 | 3.67 | active
POU5F1 | 3 | 1.12 | inactive
RHOQ | 1 | 0.4 | inactive
RHOQ | 2 | -0.428 | inactive
RHOQ | 3 | 0.0945 | inactive
NDEL1 | 1 | 0.092 | inactive
NDEL1 | 2 | 0.0898 | inactive
NDEL1 | 3 | 0.516 | inactive
NPBWR2 | 1 | -0.167 | inactive
NPBWR2 | 2 | 3.28 | active
NPBWR2 | 3 | 0.677 | inactive
ZNF273 | 1 | 1.77 | inactive
ZNF273 | 2 | 2.88 | inactive
ZNF273 | 3 | -0.137 | inactive
WDR89 | 1 | -1.41 | inactive
WDR89 | 2 | 2.57 | inactive
WDR89 | 3 | 0.929 | inactive
MADCAM1 | 1 | 2.26 | inactive
MADCAM1 | 2 | 0.729 | inactive
MADCAM1 | 3 | 3.11 | active
DAZAP2 | 1 | 0.629 | inactive
DAZAP2 | 2 | -0.663 | inactive
DAZAP2 | 3 | 3.42 | active
SGCA | 1 | 0.427 | inactive
SGCA | 2 | -0.72 | inactive
SGCA | 3 | -1.48 | inactive

No new results follow: an excerpt of the list.
target gene | reagent no. | total luciferase, z-score | activity call
RHOQ | 2 | -0.428 | inactive
RHOQ | 3 | 0.0945 | inactive
NDEL1 | 1 | 0.092 | inactive
NDEL1 | 2 | 0.0898 | inactive
NDEL1 | 3 | 0.516 | inactive
NPBWR2 | 1 | -0.167 | inactive
NPBWR2 | 2 | 3.28 | active
NPBWR2 | 3 | 0.677 | inactive
ZNF273 | 1 | 1.77 | inactive

The listing continues.
target gene | reagent no. | total luciferase, z-score | activity call
PRUNE1 | 1 | 0.247 | inactive
PRUNE1 | 2 | -0.63 | inactive
PRUNE1 | 3 | -0.518 | inactive
ME3 | 1 | 1.55 | inactive
ME3 | 2 | -0.883 | inactive
ME3 | 3 | 0.191 | inactive
KRT4 | 1 | 2.43 | inactive
KRT4 | 2 | 0.638 | inactive
KRT4 | 3 | 0.433 | inactive
NALCN | 1 | -2.28 | inactive
NALCN | 2 | -0.965 | inactive
NALCN | 3 | -0.885 | inactive
BRINP3 | 1 | -0.86 | inactive
BRINP3 | 2 | 2.96 | inactive
BRINP3 | 3 | -0.605 | inactive
CRYBA2 | 1 | 1.25 | inactive
CRYBA2 | 2 | 2.33 | inactive
CRYBA2 | 3 | 2.16 | inactive
GP5 | 1 | 0.739 | inactive
GP5 | 2 | 0.218 | inactive
GP5 | 3 | 1.78 | inactive
PDCD5 | 1 | -1.25 | inactive
PDCD5 | 2 | -0.0794 | inactive
PDCD5 | 3 | -0.273 | inactive
ZNF582 | 1 | -1.04 | inactive
ZNF582 | 2 | 1.66 | inactive
ZNF582 | 3 | -1.1 | inactive
